Experimental data: PubChem BioAssay AID743255 (National Center for Advancing Translational Sciences (NCATS), 2014)
The campaign covered roughly 390,000 compounds. About 910 (0.23%) were called active. Inconclusive results, whose numbers are uncertain, are shown with a selection of clear calls. The call rests on the fitted dose curve; in most records, active means well fitted inhibition curve with a large enough effect; inconclusive means small, poorly fitted or top-dose-only effect; inactive means no such curve, though single readings can be large or run the other way. A potency beside an inconclusive call is a rough fit, not a confirmed value.

By UniProt entry, the sequences of proteins in these tests, tags left out. Where a name states a change or a piece, a line headed by the entry shows the natural chain unless it says otherwise.
UniProt O94782: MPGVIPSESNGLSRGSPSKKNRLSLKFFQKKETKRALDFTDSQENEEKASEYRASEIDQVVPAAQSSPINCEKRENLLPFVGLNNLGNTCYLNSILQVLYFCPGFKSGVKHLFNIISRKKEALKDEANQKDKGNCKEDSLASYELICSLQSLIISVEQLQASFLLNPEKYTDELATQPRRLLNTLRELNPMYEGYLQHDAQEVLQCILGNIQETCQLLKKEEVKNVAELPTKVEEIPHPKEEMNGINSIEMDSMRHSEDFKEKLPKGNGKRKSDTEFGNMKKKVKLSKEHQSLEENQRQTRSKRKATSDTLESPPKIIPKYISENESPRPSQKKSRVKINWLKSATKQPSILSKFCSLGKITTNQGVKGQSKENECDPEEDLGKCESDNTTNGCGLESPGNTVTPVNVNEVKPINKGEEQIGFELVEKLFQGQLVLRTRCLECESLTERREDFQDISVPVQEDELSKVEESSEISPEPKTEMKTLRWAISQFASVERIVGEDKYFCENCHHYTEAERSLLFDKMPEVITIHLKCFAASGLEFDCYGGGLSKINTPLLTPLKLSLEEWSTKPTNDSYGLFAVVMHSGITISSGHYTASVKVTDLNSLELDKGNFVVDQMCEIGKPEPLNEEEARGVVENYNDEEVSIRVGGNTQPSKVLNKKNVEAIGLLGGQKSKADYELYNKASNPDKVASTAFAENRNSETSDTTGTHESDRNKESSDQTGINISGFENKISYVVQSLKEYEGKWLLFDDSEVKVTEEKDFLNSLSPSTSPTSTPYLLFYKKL

Biological target: Ubiquitin carboxyl-terminal hydrolase 1 (Homo sapiens) (UniProt O94782)
Assay: Inhibitors of USP1/UAF1: Primary Screen; further: nearly all actives have a fitted effect of over 60% in size
Conditions: recombinant USP1/UAF1, Ub-Rhodamine cleavage fluorescence; activity change, negative = inhibition: at 57.1 µM (top of the series)
Method in brief: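 In this screen, compounds sit with the deubiquitinase complex (1nM) for 15 min at room temperature before Ub-Rho is added at 150nM final. Fluorescence rise is then followed for 6 reads every 60 seconds.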
On the % scale 0 is the no-effect control and ±100 the full control effect; potency means the concentration at half of the fitted maximal effect.

Potency, inactive:
Oc1cccc(Nc2nc(-c3ccccc3)nc3ccccc23)c1

Potency, inconclusive:
COc1cc2c(cc1OC)C(C)N(C(=O)c1cc3c(s1)-c1c(C)cccc1OC3)CC2 (stereo not given) 5.62 µM [inhibitor, full curve, poor fit], COc1ccc(C)cc1NC(=O)C(CCSC)NS(=O)(=O)c1ccc2c(c1)oc(=O)n2C (stereo not given) 1 µM [inhibitor, full curve, poor fit], NCCCCCCNS(=O)(=O)c1cccc2c(Cl)cccc12 14.1 µM [inhibitor, partial curve, poor fit], Cc1ccccc1-c1ccc(C=Nc2c(C)n(C)n(-c3ccccc3)c2=O)o1 44.7 µM [inhibitor, partial curve, poor fit], COc1ccc(Cl)c(NC(=O)C/C(C)=N/NC(=O)CCc2ccccc2)c1 6.31 µM [inhibitor, single point], C/C=C(/C)C(=O)OC1CC(C)(C)C[C@H]2C3=CC[C@@H]4[C@@]5(C)CCC(O[C@@H]6O[C@@H](C(=O)O)[C@@H](O)C(O[C@@H]7OC[C@H](O)[C@@H](O)[C@@H]7O[C@@H]7OC(CO)C(O)[C@@H](O)[C@@H]7O)C6O[C@@H]6OC(CO)C(O)C(O)C6O)[C@@](C)(CO)[C@@H]5CC[C@]4(C)[C@]3(C)CC(O)[C@@]12CO (stereo not given in full) 79.4 µM [inhibitor, partial curve, poor fit], CN1CC=C2C(C#N)=C(N)C(C#N)(C#N)C(Cc3ccccc3)C2C1 (stereo not given) 44.7 µM [inhibitor, single point], CC(=O)c1ccc(-c2ccc([C@H]3[C@H]4C=CC[C@@H](C)[C@@H]4C(=O)N3Cc3ccccc3)c(F)c2)cc1 44.7 µM [inhibitor, partial curve, poor fit], O=C1[C@H]2[C@H](C=CC[C@H]2C(=O)N2CCN(c3ccccc3)CC2)CCN1Cc1ccc(Cl)c(Cl)c1 31.6 µM [inhibitor, partial curve], CC1CCN(C(=O)c2[nH]cnc2C(=O)N[C@@H](C)C(=O)OCc2ccccc2)CC1 44.7 µM [inhibitor, partial curve, poor fit]

Activity change, negative = inhibition, inactive:
Cc1ccc(NC(=S)/N=C(\N)Nc2nc(C)c3cc(C)c(C)cc3n2)cc1C -21.4%, O=C(O)Cn1c2c(c3ccccc31)CSc1ccc(Cl)cc1-2 -19.1%, O=C(O)c1cc(N/N=C/c2ccc(N3CCOCC3)s2)ccc1Cl -24.6%, CC(C)c1ccc(C(O)P(=O)(OC2CCCCC2)OC2CCCCC2)cc1 (stereo not given) -16.6%
